# These are yes or no findings as the source states them, for the method shown. Binding calls can cover weak binding; strength is not graded here.
# Molecular target: TaHY5-7A (ELONGATED HYPOCOTYL 5-7A) in pGBKT7 (Triticum aestivum)
# Test: two-hybrid; yeast Y2HGold; bait in pGBKT7, prey in pGADT7; growth on SD/-Leu/-Trp/-His/-Ade and SD/-Leu/-Trp/-His/-Ade/X-α-Gal medium
substance,measurement,value
TaBBX-3B (B-BOX-3B) in pGADT7 (from UniProt A0A3B6FJT2),binding,binds
